Molecules are shown by their SMILES. Where a name gives a salt, the structure may show the parent alone. ± gives the standard deviation of the averaged measurements. Only a part is listed here, and it is no random draw. Repeats in this data set agree poorly, so a single value says little.

The subject of this assay is FaDu. The assay can be described thus: mitochondrial oxygen consumption rate normalised to cell number, Z score over the library; higher = higher oxygen consumption (negative = OCR reduction). The settings on record: treatment time 24 h, assay medium: 5 mM galactose, 5 mM pyruvate, 4 mM glutamine. How it is done:
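Primary screen: FaDu cells were incubated 24 h with Pharmakon 1600 / TDI oncology set compounds at 2 or 10 uM. Mitochondrial-specific OCR (basal minus 2 uM antimycin A) was measured on a Seahorse XF96 in assay medium with 5 mM galactose, 5 mM pyruvate and 4 mM glutamine, then corrected for Hoechst cell number and expressed as a Z score […]. Compounds that cut cell number by >66% were excluded. Two repeats.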

Consider `CC(=O)O[C@]1(C(C)=O)CC[C@H]2[C@@H]3C=C(Cl)C4=CC(=O)[C@@H]5C[C@@H]5[C@]4(C)[C@H]3CC[C@@]21C`, for which the “mitochondrial oxygen consumption rate normalised” value (2 µM) was determined as 0.275 ± 1.9. Regarding `O=C1c2ccccc2C(=O)C1c1ccc(Cl)cc1`, the “mitochondrial oxygen consumption rate normalised” value (2 µM) was -0.273 ± 0.41. On the same count and under the same terms, for `C#C[C@]1(OC(C)=O)CC[C@H]2[C@@H]3CCC4=CC(=NO)CC[C@@H]4[C@H]3CC[C@@]21CC` (mixture of isomers) the value was -0.0621 ± 0.43; for `CCOC(=O)[C@H](CCc1ccccc1)N[C@@H](C)C(=O)N1Cc2ccccc2C[C@H]1C(=O)O`, 0.106 ± 0.19; for `CC(CCc1ccccc1)NCC(O)c1ccc(O)c(C(N)=O)c1` (stereo not drawn), 0.395 ± 0.033.

As to `O=C(O)c1cccnc1Nc1cccc(C(F)(F)F)c1`, under “2 µM”, the “mitochondrial oxygen consumption rate normalised” value was -0.0941 ± 0.38. As to `Cc1oncc1C(=O)Nc1ccc(C(F)(F)F)cc1`, the “mitochondrial oxygen consumption rate normalised” value (2 µM) is 0.488 ± 0.16. Take `CC1CC(OC(=O)C(O)c2ccccc2)CC(C)(C)C1` (stereo not drawn): the “mitochondrial oxygen consumption rate normalised” value (2 µM) amounted to 0.715 ± 2. The same measure, in the same setting: for `C[N+](C)(C)CCCCCC[N+](C)(C)C` the value was -0.292 ± 0.037. With `CN(C)/N=N/c1[nH]cnc1C(N)=O` [Dacarbazine], the “mitochondrial oxygen consumption rate normalised” value (2 µM) worked out at 0.0555 ± 0.42. On the same count and under the same terms, for `CN(C)/N=N/c1[nH]cnc1C(N)=O` the value was 0.561 ± 1.2; for `Cc1onc(-c2c(Cl)cccc2Cl)c1C(=O)N[C@@H]1C(=O)N2[C@@H]1SC(C)(C)[C@@H]2C(=O)O`, -0.161 ± 0.89.

As to `CN1C(C)(C)CCCC1(C)C`, under “2 µM”, the “mitochondrial oxygen consumption rate normalised” value was 0.289 ± 0.16.

Take `Cc1cc2c(cc1S(N)(=O)=O)S(=O)(=O)CCC2`: the “mitochondrial oxygen consumption rate normalised” value (2 µM) was -0.565 ± 0.11. On the same count and under the same terms, for `CCCCCCc1ccc(O)cc1O.Nc1c2ccccc2nc2ccccc12` the value was -1.62 ± 0.36; for `CCCCCCCCCc1ccc(OCCOCCOCCOCCOCCOCCOCCOCCOCCO)cc1`, -2.09 ± 0.89.

With `CC(C)c1ccc2oc3nc(N)c(C(=O)O)cc3c(=O)c2c1`, the “mitochondrial oxygen consumption rate normalised” value (2 µM) was found to be 0.335 ± 1.2. As for `NC(=O)c1cc[n+](CC2=C(C(=O)O)N3C(=O)[C@@H](NC(=O)[C@@H](c4ccccc4)S(=O)(=O)[O-])[C@H]3SC2)cc1`, the “mitochondrial oxygen consumption rate normalised” value (2 µM) came to 0.126 ± 0.29. Consider `CC1(C)S[C@@H]2[C@H](NC(=O)[C@H](NC(=O)N3CCNC3=O)c3ccccc3)C(=O)N2[C@H]1C(=O)O`, for which the “mitochondrial oxygen consumption rate normalised” value (2 µM) is -0.238 ± 0.32. Take `COC(=O)Nc1nc2cc(C(=O)c3ccccc3)ccc2[nH]1`: the “mitochondrial oxygen consumption rate normalised” value (2 µM) was found to be 0.432 ± 0.63. As for `CC(C(=O)O)c1ccc2c(c1)Cc1cccnc1O2` (stereo not drawn), the “mitochondrial oxygen consumption rate normalised” value (2 µM) is -0.307 ± 0.18. The same measure, in the same setting: with `C[C@H]1COc2c(C3(N)CC3)c(F)cc3c(=O)c(C(=O)O)cn1c23` the figure was -0.488 ± 0.1; with `CSc1ccc2c(c1)C(N1CCN(C)CC1)Cc1ccccc1S2` (stereo not drawn), -0.649 ± 0.12. For the molecule `CC(=O)Nc1ccccc1`, the “mitochondrial oxygen consumption rate normalised” value (2 µM) turned out to be 0.0262 ± 0.18. Still for that read-out and setting: for `COC(=O)C1=C(C)NC(C)=C(C(=O)OCCN2CCN(C(c3ccccc3)c3ccccc3)CC2)C1c1cccc([N+](=O)[O-])c1` (stereo not drawn) the value was 0.0396 ± 0.52; for `C[N+]1(C)[C@@H]2CC[C@H]1C[C@@H](OC(=O)C(O)c1ccccc1)C2` (stereo partly drawn), -0.635 ± 0.7.

As for `CC(C)(C(=O)O)c1ccc(C(O)CCCN2CCC(C(O)(c3ccccc3)c3ccccc3)CC2)cc1` (stereo not drawn), for the setting “2 µM”, the “mitochondrial oxygen consumption rate normalised” value turned out to be 0.568 ± 0.45. Turning to `O=C[C@H](O)[C@@H](O)[C@H](O)CO`, the “mitochondrial oxygen consumption rate normalised” value (2 µM) was found to be 0.563 ± 0.11 and the “mitochondrial oxygen consumption rate normalised” value (10 µM) was -0.552 ± 0.11. Regarding `Cc1cc(C(C)(C)C)c(O)c(C)c1CC1=NCCN1`, where the note is “2 µM”, the “mitochondrial oxygen consumption rate normalised” value is 0.305 ± 0.23. For the molecule `NC(Cc1ccc(Cl)cc1)C(=O)O` (stereo not drawn), the “mitochondrial oxygen consumption rate normalised” value (2 µM) amounted to 0.589 ± 0.73. `CN(C)CCCN1c2ccccc2Sc2ccccc21`: the “mitochondrial oxygen consumption rate normalised” value (2 µM) stood at 0.419 ± 0.62.

`CCCc1cc(=O)[nH]c(=S)[nH]1`: the “mitochondrial oxygen consumption rate normalised” value (2 µM) was found to be 1.08 ± 0.24. Still for that read-out and setting: for `COc1ccc(CCN(C)CCCC(C#N)(c2ccc(OC)c(OC)c2)C(C)C)cc1OC` (stereo not drawn) the value was 0.59 ± 0.23. Still for that read-out and setting: with `CN(N=O)C(=O)N[C@H]1C(O)O[C@H](CO)[C@@H](O)[C@@H]1O` (mixture of isomers) the figure was -1.06 ± 0.72; with `CO/N=C(\C(=O)N[C@@H]1C(=O)N2C(C(=O)OCOC(=O)C(C)(C)C)=C(/C=C\c3scnc3C)CS[C@H]12)c1csc(N)n1`, 0.723 ± 0.94; with `Oc1ncnc2[nH]ncc12` [Allopurinol], 0.0104 ± 0.24. Still for that read-out and setting: with `Oc1ncnc2[nH]ncc12` the figure was 0.968 ± 0.95; with `C[C@]12CCC(=O)C=C1CC[C@@H]1[C@@H]2[C@@H](O)C[C@@]2(C)[C@H]1CC[C@]2(O)C(=O)CO`, -0.0553 ± 1.1; with `CCOC(=O)C1=C[C@@H](OC(CC)CC)[C@H](NC(C)=O)[C@@H](N)C1`, 0.252 ± 0.53. For the molecule `CNCCCC1c2ccccc2C=Cc2ccccc21`, for the setting “2 µM”, the “mitochondrial oxygen consumption rate normalised” value came out at 1.44 ± 1.1.

On to `Nc1nc(Cl)nc2c1ncn2[C@H]1C[C@H](O)[C@@H](CO)O1` [Cladribine], for which, for the setting “2 µM”, the “mitochondrial oxygen consumption rate normalised” value was -0.125 ± 0.28. The same measure, in the same setting: with `Cc1cccc(C(=O)O)c1O` the figure was -0.675 ± 0.6.

For the molecule `Cc1ccc2c(Br)cc(Br)c(OC(=O)c3ccccc3)c2n1`, the “mitochondrial oxygen consumption rate normalised” value reads like this: (2 µM) -0.982 ± 0.62; (10 µM) -2.31 ± 0.47. `CN[C@@H]1[C@H](O[C@H]2[C@H](O[C@H]3[C@H](O)[C@@H](O)[C@H](N=C(N)N)[C@@H](O)[C@@H]3N=C(N)N)O[C@@H](C)[C@]2(O)C=O)O[C@@H](CO)[C@H](O)[C@H]1O`: the “mitochondrial oxygen consumption rate normalised” value (2 µM) is -0.674 ± 0.2. As for `CC1(C)S[C@@H]2[C@H](NC(=O)[C@H](N)c3ccc(O)cc3)C(=O)N2[C@H]1C(=O)O`, the “mitochondrial oxygen consumption rate normalised” value (2 µM) is -0.269 ± 0.47. With `COc1cccc2c1C(=O)c1c(O)c3c(c(O)c1C2=O)C[C@@](O)(C(=O)CO)C[C@@H]3O[C@H]1C[C@H](N)[C@H](O)[C@H](C)O1` [Doxorubicin HCl], the “mitochondrial oxygen consumption rate normalised” value (2 µM) is 0.698 ± 0.75. The same measure, in the same setting: with `OCCOCCN1CCN(C2=Nc3ccccc3Sc3ccccc32)CC1` the figure was 0.0842 ± 0.32. On to `N=C(N)c1ccc(OCCCCCOc2ccc(C(=N)N)cc2)cc1`, for which the “mitochondrial oxygen consumption rate normalised” value runs as follows: (2 µM) -1.04 ± 0.19; (10 µM) -3.01 ± 0.078.

Turning to `O=C(OC[C@H]1O[C@@H](OC(=O)c2cc(O)c(O)c(OC(=O)c3cc(O)c(O)c(O)c3)c2)[C@H](OC(=O)c2cc(O)c(O)c(OC(=O)c3cc(O)c(O)c(O)c3)c2)[C@@H](OC(=O)c2cc(O)c(O)c(OC(=O)c3cc(O)c(O)c(O)c3)c2)[C@@H]1OC(=O)c1cc(O)c(O)c(OC(=O)c2cc(O)c(O)c(O)c2)c1)c1cc(O)c(O)c(OC(=O)c2cc(O)c(O)c(O)c2)c1`, the “mitochondrial oxygen consumption rate normalised” value (2 µM) was -0.399 ± 0.43.

Regarding `CCCCC(=O)O[C@H]1CC[C@H]2[C@@H]3CCc4cc(O)ccc4[C@H]3CC[C@]12C`, the “mitochondrial oxygen consumption rate normalised” value (2 µM) stood at 0.481 ± 0.4.

Values taken from the supplement of paper PMC4962491.
